# Measured values reported in the supplement of paper PMC6418307.
# Structures can show the parent of a compound that is named as a salt. Single values of this set are uncertain.
# System: primary mouse cortical neurons
# Assay: cell health score (luciferase spike-in reads / total reads per well) (fraction); higher = fewer cellular reads, worse cell health / toxicity
# Settings: treatment time 24 h
# [1] = 0.01 µM, sex of neuron culture: Female
# [2] = 0.01 µM, sex of neuron culture: Male
# [3] = 0.1 µM, sex of neuron culture: Female
# [4] = 0.1 µM, sex of neuron culture: Male
# [5] = 1 µM, sex of neuron culture: Female
# [6] = 1 µM, sex of neuron culture: Male
# [7] = 10 µM, sex of neuron culture: Female
# [8] = 10 µM, sex of neuron culture: Male
Compound,cell health score [1],cell health score [2],cell health score [3],cell health score [4],cell health score [5],cell health score [6],cell health score [7],cell health score [8]
Cc1c(F)c(F)c(COC(=O)[C@@H]2[C@H](/C=C(\Cl)C(F)(F)F)C2(C)C)c(F)c1F (racemic) [Tefluthrin],0.000505,0.000789,0.00145,0.00137,0.000751,0.000493,0.00148,0.000565
C=C(C)CN(CC)c1c([N+](=O)[O-])cc(C(F)(F)F)cc1[N+](=O)[O-] [Ethalfluralin],0.000414,0.000988,0.000883,0.00105,0.000846,0.000473,0.00124,0.000426
CC(=O)N=C1C=CC(=O)C=C1 [NAPQI],0.000529,0.000734,0.000819,0.000773,0.0012,0.00074,0.000995,0.000816
CCOC(=O)COc1cc(-n2ncc(C(F)(F)F)c(C)c2=O)c(F)cc1Cl [Flufenpyr-ethyl],0.000696,0.00106,0.000698,0.000729,0.000741,0.00112,0.00115,0.000573
C[C@@]1(c2ccc(Oc3ccccc3)cc2)OC(=O)N(Nc2ccccc2)C1=O (racemic) [Famoxadone],0.000568,0.000962,0.000836,0.00103,0.00109,0.000522,0.00229,0.000954
O=[N+]([O-])/N=C1\NCCN1Cc1ccc(Cl)nc1 [Imidacloprid],0.000568,0.00113,0.000508,0.001,0.000854,0.000397,0.000967,0.000508
CC(C)[C@H](C(=O)O[C@H](C#N)c1cccc(Oc2ccccc2)c1)c1ccc(Cl)cc1 [Esfenvalerate],0.000548,0.000976,0.00089,0.00114,0.000837,0.000753,0.000918,0.000557
Clc1cccc(C(Cl)(Cl)Cl)n1 [Nitrapyrin],0.000618,0.0012,0.00101,0.00112,0.000733,0.000567,0.00284,0.000563
COc1cc(OC)nc(NC(=O)NS(=O)(=O)c2ncccc2OCC(F)(F)F)n1 [Trifloxysulfuron-sodium],0.000566,0.000733,0.00126,0.000954,0.0011,0.000761,0.00115,0.000551
OC(c1ccc(Cl)cc1)(c1cncnc1)c1ccccc1Cl (stereo not drawn) [Fenarimol],0.000538,0.000831,0.000807,0.000833,0.000746,0.000703,0.000944,0.000504
CCNP(=S)(OC)O/C(C)=C/C(=O)OC(C)C (stereo not drawn) [Propetamphos],0.000484,0.000853,0.000645,0.000891,0.000909,0.000487,0.000819,0.000523
CC(C)(C)C(O)C(Oc1ccc(Cl)cc1)n1cncn1 (stereo not drawn) [Triadimenol],0.000531,0.000853,0.000722,0.000955,0.00088,0.000816,0.000944,0.000447
CNC(=O)ON=C(C)SC [Methomyl],0.000677,0.00071,0.000501,0.000794,0.000731,0.000689,0.00141,0.000658
C#CC(C)(C)NC(=O)c1cc(Cl)cc(Cl)c1 [Propyzamide],0.000524,0.000989,0.000862,0.00069,0.000687,0.000634,0.000838,0.000419
CCN(CC)C(=O)SCc1ccc(Cl)cc1 [Thiobencarb],0.000475,0.000636,0.000771,0.000763,0.000818,0.000585,0.00143,0.000537
CC(=O)O[C@H]1C(=O)[C@@]2(C)[C@H]([C@H](OC(=O)c3ccccc3)[C@]3(O)C[C@H](OC(=O)[C@H](O)[C@@H](NC(=O)c4ccccc4)c4ccccc4)C(C)=C1C3(C)C)[C@]1(OC(C)=O)CO[C@@H]1C[C@@H]2O [Taxol],0.000648,0.000942,0.000711,0.00123,0.000556,0.000905,0.00109,0.000438
CCOc1cc(C(C)(C)C)ccc1C1COC(c2c(F)cccc2F)=N1 (stereo not drawn) [Etoxazole],0.000414,0.000609,0.00114,0.000542,0.000548,0.000559,0.00116,0.000636
CCOC(=O)COc1cc(-c2nn(C)c(OC(F)F)c2Cl)c(F)cc1Cl [Pyraflufen-ethyl],0.000598,0.00104,0.00194,0.000782,0.00134,0.000852,0.000623,0.00239
CCCC1COC(Cn2cncn2)(c2ccc(Cl)cc2Cl)O1 (stereo not drawn) [Propiconazole],0.000363,0.000501,0.00123,0.000775,0.000957,0.000585,0.000754,0.000739
CN(C)C(=O)Nc1ccc(Cl)c(Cl)c1 [Diuron],0.000436,0.000652,0.000623,0.000825,0.000738,0.000665,0.000786,0.000668
N#CN [Cyanamide],0.000639,0.00074,0.00126,0.000939,0.000709,0.000633,0.000866,0.000906
Nc1cnn(-c2ccccc2)c(=O)c1Cl [Chloridazon],0.000892,0.00074,0.000824,0.000957,0.000802,0.000487,0.00113,0.000607
CC(C)(C)C(=O)C(Oc1ccc(Cl)cc1)n1cncn1 (stereo not drawn) [Triadimefon],0.000654,0.000578,0.000718,0.00103,0.000784,0.000477,0.000926,0.000494
CNC(=O)Oc1cccc(/N=C/N(C)C)c1 [Formetanate hydrochloride],0.0013,0.000817,0.000924,0.000804,0.000722,0.000507,0.00107,0.000547
CCSC(=O)N(CC)C1CCCCC1 [Cycloate],0.000649,0.000901,0.000782,0.000825,0.00096,0.000529,0.00147,0.000497
CCCOC/C(=N\c1ccc(Cl)cc1C(F)(F)F)n1ccnc1 [Triflumizole],0.000871,0.000989,0.000422,0.000676,0.000746,0.000873,0.00104,0.000611

# A different layout for 2 compounds above:
Compound	cell health score [1]	cell health score [2]	cell health score [3]	cell health score [4]	cell health score [5]	cell health score [6]	cell health score [7]	cell health score [8]
COc1cc(OC)nc(NC(=O)NS(=O)(=O)c2ncccc2OCC(F)(F)F)n1 [Trifloxysulfuron-sodium]	0.000566	0.000733	0.00126	0.000954	0.0011	0.000761	0.00115	0.000551
OC(c1ccc(Cl)cc1)(c1cncnc1)c1ccccc1Cl (stereo not drawn) [Fenarimol]	0.000538	0.000831	0.000807	0.000833	0.000746	0.000703	0.000944	0.000504
